The list shows only some results of the screen, not a fair sample: it gathers tests that were run many times, whatever their T/C, doses with no T/C, and many T/C values between a quarter and a half above the control. Other doses and runs of a compound stand elsewhere. T/C is the treated group as % of the vehicle group. Schedule codes are those of the source, read here as Q, the interval in days (D) or hours (H), X, the number of doses. Some T/C values carry the count of animals alive at the toxicity check (mostly the fifth day); where none is given, no animal had died by that day. Some doses were run more than once; the results are listed from low to high. Some entries give survivors of the animals treated and no T/C: the source files T/C as zero there, which appears to mark a toxic dose or a test without result, not a measured value. Survivors were counted at the toxicity check, usually on the fifth day, unless a day is given; later deaths do not show.
System: BDF1 mice, colon carcinoma 38 sc, T/C %
Assay: NCI In Vivo Anticancer Drug Screen. Data for tumor model Colon Carcinoma 38 (subcutaneous) in B6D2F1 (BDF1) mice
Conditions: T/C endpoint: median tumor weight (est.), higher T/C = larger tumour; for T/C: evaluated on day 20
Summary of the method: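 Ratio of survival or tumor size, compound-treated animals relative to vehicle controls, in tumor-bearing mice.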

[1] = dose: 200.0 mg/kg/injection, schedule: Q07DX002 (ip), vehicle: saline with Tween-80
[2] = dose: 8.0 mg/kg/injection, schedule: Q07DX002 (ip), vehicle: saline
[3] = dose: 100.0 mg/kg/injection, schedule: Q07DX002 (ip), vehicle: saline with Tween-80
[4] = dose: 6.25 mg/kg/injection, schedule: Q07DX002 (ip), vehicle: saline
[5] = dose: 50.0 mg/kg/injection, schedule: Q07DX002 (ip), vehicle: saline
[6] = dose: 100.0 mg/kg/injection, schedule: Q07DX002 (ip), vehicle: saline
[7] = dose: 400.0 mg/kg/injection, schedule: Q07DX002 (ip), vehicle: saline with Tween-80
[8] = dose: 1.25 mg/kg/injection, schedule: Q07DX002 (ip), vehicle: saline with Tween-80
[9] = dose: 40.0 mg/kg/injection, schedule: Q07DX002 (ip), vehicle: saline with Tween-80
[10] = dose: 5.0 mg/kg/injection, schedule: Q07DX002 (ip), vehicle: Klucel (hydroxypropylcellulose) (HPC)
[11] = dose: 40.0 mg/kg/injection, schedule: Q07DX002 (ip), vehicle: Klucel (hydroxypropylcellulose) (HPC)

## CC(=O)Oc1ccc[nH]c1=O
[1]
  T/C: 128 % of control
dose: 1600.0 mg/kg/injection, schedule: Q07DX002 (ip), vehicle: saline with Tween-80
  survivor count: 0 of 10 on day 20

## Cc1cc(=O)n2c3c(c4c(cc13)c(CN(C)C)cc(=O)n4C)OC2
[1]
  survivor count: 1 of 10 on day 20

## CC[C@]1(O)C[C@H]2CN(CCc3c([nH]c4ccccc34)[C@@](C(=O)OC)(c3cc4c(cc3OC)N(C=O)[C@H]3[C@@](O)(C(=O)OC)[C@H](OC(C)=O)[C@]5(CC)C=CCN6CC[C@]43[C@@H]65)C2)C1
dose: 0.5 mg/kg/injection, schedule: Q07DX002 (ip), vehicle: saline
  T/C: 128 % of control
[2]
  survivor count: 3 of 10 on day 20 and 4 of 10 on day 20

## O=C1OCC2(C(=O)O)C(=O)OCC12 (configuration not stated)
[3]
  T/C: 125 % of control
[1]
  T/C: 139 % of control

## C[n+]1c(-c2cccc3ccccc23)c2cc(N)ccc2c2ccccc21
dose: 3.12 mg/kg/injection, schedule: Q07DX002 (ip), vehicle: saline
  T/C: 132 % of control
[4]
  T/C: 128 % of control
[5]
  survivor count: 1 of 10 on day 20 and 3 of 10 on day 20
dose: 50.0 mg/kg/injection, schedule: Q07DX002 (ip), vehicle: suspension in saline
  survivor count: 6 of 10 on day 20
[6]
  survivor count: 0 of 10 on day 20
dose: 100.0 mg/kg/injection, schedule: Q07DX002 (ip), vehicle: suspension in saline
  survivor count: 0 of 10 on day 20

## Cc1ccc(NC(=O)Oc2ccc(Br)cc2Br)c([N+](=O)[O-])c1
[7]
  T/C: 134 % of control [8 of 10 alive]

## C=C1C(=O)OC2CC(C)C3C4OC4C(O)C3(C)C(O)C12 (configuration not stated)
dose: 200.0 mg/kg/injection, schedule: Q07DX002 (ip), vehicle: saline
  T/C: 127 % of control

## NC(C(=O)O)c1ccc(CBr)cc1 (configuration not stated)
[3]
  T/C: 142 % of control
[1]
  survivor count: 5 of 10 on day 20
[7]
  survivor count: 0 of 10 on day 20

## CN=C(N)N/N=C(\C)c1ccc2c(c1)Cc1ccccc1-2
[7]
  survivor count: 0 of 10 on day 20

## COC(=O)C(Cl)(Cl)N=Nc1c(Cl)cc(Cl)c(C)c1Cl
[6]
  T/C: 125 % of control

## CCCC(=O)OCc1cc(=O)n(C)c2c3c4c(cc12)c(C)cc(=O)n4CO3
dose: 200.0 mg/kg/injection, schedule: Q07DX002 (ip), vehicle: Klucel (hydroxypropylcellulose) (HPC)
  survivor count: 0 of 10 on day 20

## C[C@]12CCC(=O)C=C1CC[C@@H]1[C@@H]2[C@@H](O)C[C@@]2(C)[C@H]1CC[C@]2(O)C(=O)CO
dose: 40.0 mg/kg/injection, schedule: Q07DX003 (ip), vehicle: Klucel (hydroxypropylcellulose) (HPC)
  T/C: 141 % of control
dose: 50.0 mg/kg/injection, schedule: Q07DX002 (ip), vehicle: Klucel (hydroxypropylcellulose) (HPC)
  T/C: 129 % of control
dose: 80.0 mg/kg/injection, schedule: Q07DX003 (ip), vehicle: Klucel (hydroxypropylcellulose) (HPC)
  T/C: 131 % of control
dose: 100.0 mg/kg/injection, schedule: Q07DX002 (ip), vehicle: Klucel (hydroxypropylcellulose) (HPC)
  T/C: 125 % of control [9 of 10 alive on day 20]
dose: 320.0 mg/kg/injection, schedule: Q07DX003 (ip), vehicle: Klucel (hydroxypropylcellulose) (HPC)
  T/C: 133 % of control

## CCN1/C(=C/C=C/C=C\C=C\c2sc3ccc4ccccc4c3[n+]2CC)Sc2ccc3ccccc3c21
[8]
  T/C: 149 % of control [9 of 10 alive on day 20]
[9]
  survivor count: 5 of 10 on day 20

## O=C/C(Cl)=C(/Cl)C(=O)O
dose: 5.0 mg/kg/injection, schedule: Q07DX002 (ip), vehicle: saline with Tween-80
  T/C: 132 % of control
[9]
  survivor count: 5 of 10 on day 20
dose: 80.0 mg/kg/injection, schedule: Q07DX002 (ip), vehicle: saline with Tween-80
  survivor count: 0 of 10 on day 20

## O=C1C(NCC(O)CO)=C(N2CC2)C(=O)C(NCC(O)CO)=C1N1CC1 (configuration not stated)
dose: 2.0 mg/kg/injection, schedule: Q07DX002 (ip), vehicle: saline
  T/C: 131 % of control
dose: 4.0 mg/kg/injection, schedule: Q07DX002 (ip), vehicle: saline
  T/C: 125 % of control
[2]
  T/C: 132 % of control
dose: 16.0 mg/kg/injection, schedule: Q07DX002 (ip), vehicle: saline
  survivor count: 6 of 10 on day 20
dose: 32.0 mg/kg/injection, schedule: Q07DX002 (ip), vehicle: saline
  survivor count: 0 of 10 on day 20
dose: 32.0 mg/kg/injection, schedule: Q07DX002 (ip), vehicle: suspension in saline
  survivor count: 1 of 10 on day 20

## Cc1ccc(C(=O)[O][Hg][CH2]C2COC([CH2][Hg][O]C(=O)c3ccc(C)cc3)CO2)cc1 (configuration not stated)
dose: 25.0 mg/kg/injection, schedule: Q07DX002 (ip), vehicle: Klucel (hydroxypropylcellulose) (HPC)
  T/C: 144 % of control

## Nc1ccc(Cn2ccc3c4c(N)nc(N)nc4ccc32)cc1
[8]
  T/C: 132 % of control
[9]
  survivor count: 3 of 10 on day 20

## CC1C2CCC3C(O)C2(CC(O)C2(O)C1CC(O)C2(C)C)CC3(C)O (configuration not stated)
dose: 0.25 mg/kg/injection, schedule: Q07DX002 (ip), vehicle: Klucel (hydroxypropylcellulose) (HPC)
  T/C: 127 % of control
dose: 1.0 mg/kg/injection, schedule: Q07DX002 (ip), vehicle: Klucel (hydroxypropylcellulose) (HPC)
  T/C: 129 % of control [9 of 10 alive on day 20]
dose: 4.0 mg/kg/injection, schedule: Q07DX002 (ip), vehicle: Klucel (hydroxypropylcellulose) (HPC)
  survivor count: 2 of 10 on day 20

## CC(=O)OCC1OC([S-])C(OC(C)=O)C(OC(C)=O)C1OC(C)=O.CC[PH+](CC)CC.CC[PH+](CC)CC.[Au].[Au] (configuration not stated)
dose: 2.5 mg/kg/injection, schedule: Q07DX002 (ip), vehicle: Klucel (hydroxypropylcellulose) (HPC)
  T/C: 127 % of control
[10]
  T/C: 135 [9 of 10 alive on day 20] and 143 % of control
dose: 20.0 mg/kg/injection, schedule: Q07DX002 (ip), vehicle: Klucel (hydroxypropylcellulose) (HPC)
  survivor count: 0 of 10 on day 20 and 3 of 10 on day 20
[11]
  survivor count: 0 of 10 on day 20

## O=Cc1ccc(C(Cl)(Cl)Cl)cc1
dose: 50.0 mg/kg/injection, schedule: Q07DX002 (ip), vehicle: saline with Tween-80
  T/C: 149 % of control
[7]
  survivor count: 6 of 10 on day 20

## N=C(N)CCCCCCCCC(=N)N
dose: 1.56 mg/kg/injection, schedule: Q07DX002 (ip), vehicle: saline
  T/C: 133 % of control [9 of 10 alive on day 20]
[4]
  survivor count: 0 of 10 on day 20
dose: 12.5 mg/kg/injection, schedule: Q07DX002 (ip), vehicle: saline
  survivor count: 1 of 10 on day 20
dose: 25.0 mg/kg/injection, schedule: Q07DX002 (ip), vehicle: saline
  survivor count: 0 of 10 on day 20
[5]
  survivor count: 0 of 10 on day 20 and 1 of 10 on day 20

## c1ccc2c(NCCCCCCNc3c4ccccc4nc4ccccc34)c3ccccc3nc2c1
[10]
  T/C: 126 % of control
[11]
  T/C: 136 % of control [9 of 10 alive]

## Cc1ccc(NCC2(/N=C/c3ccccc3)OC(CO)C(O)C2O)cc1 (configuration not stated)
dose: 6.25 mg/kg/injection, schedule: Q07DX003 (ip), vehicle: Klucel (hydroxypropylcellulose) (HPC)
  T/C: 127 % of control

Source: PubChem BioAssay AID212 (DTP/NCI, 2004)
